Values quoted from earlier work as cited in US20230321008A1, “INHIBITORS OF ACID SPHINGOMYELINASE FOR PREVENTING AND TREATING THE COVID-19 DISEASE” (priority 2020, published 2023).

Biological target: T1, acid sphingomyelinase (ASM) (Homo sapiens, UniProt P17405)
T1 sequence (P17405 47-631): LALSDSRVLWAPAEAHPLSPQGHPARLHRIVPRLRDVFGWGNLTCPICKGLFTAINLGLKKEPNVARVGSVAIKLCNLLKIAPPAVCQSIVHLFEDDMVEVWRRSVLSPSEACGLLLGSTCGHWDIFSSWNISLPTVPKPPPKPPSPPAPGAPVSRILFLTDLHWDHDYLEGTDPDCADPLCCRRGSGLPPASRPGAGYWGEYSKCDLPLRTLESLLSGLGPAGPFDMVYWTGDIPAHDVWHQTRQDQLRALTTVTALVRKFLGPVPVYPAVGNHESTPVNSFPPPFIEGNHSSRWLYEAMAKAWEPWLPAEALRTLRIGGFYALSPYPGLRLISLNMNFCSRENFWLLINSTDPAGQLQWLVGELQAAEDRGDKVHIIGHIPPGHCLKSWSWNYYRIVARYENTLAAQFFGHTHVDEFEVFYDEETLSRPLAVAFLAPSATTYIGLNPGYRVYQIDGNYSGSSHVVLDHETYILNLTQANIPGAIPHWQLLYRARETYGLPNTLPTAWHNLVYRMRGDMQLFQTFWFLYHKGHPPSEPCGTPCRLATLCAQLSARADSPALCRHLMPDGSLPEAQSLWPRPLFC
Conditions: cited from earlier work

Compound	In vitro inhibition of acid sphingomyelinase (in words)
CCCCc1oc2ccccc2c1C(=O)c1cc(I)c(OCCN(CC)CC)c(I)c1 [Amiodarone, amiodarone]	in vitro inhibit acid sphingomyelinase with varying degrees
CCOC(=O)N1CCC(=C2c3ccc(Cl)cc3CCc3cccnc32)CC1 [loratadine]	in vitro inhibit acid sphingomyelinase with varying degrees
